Experimental data: paper PMC9163669
These are yes or no findings as the source states them, for the method shown. Binding seen in cells or lysates may run through a third protein. Some binding calls cover weakened binding; strength is not graded here.

Protein sequences, listed by entry. Tags and fused reporters are not part of them.
UniProt O14746: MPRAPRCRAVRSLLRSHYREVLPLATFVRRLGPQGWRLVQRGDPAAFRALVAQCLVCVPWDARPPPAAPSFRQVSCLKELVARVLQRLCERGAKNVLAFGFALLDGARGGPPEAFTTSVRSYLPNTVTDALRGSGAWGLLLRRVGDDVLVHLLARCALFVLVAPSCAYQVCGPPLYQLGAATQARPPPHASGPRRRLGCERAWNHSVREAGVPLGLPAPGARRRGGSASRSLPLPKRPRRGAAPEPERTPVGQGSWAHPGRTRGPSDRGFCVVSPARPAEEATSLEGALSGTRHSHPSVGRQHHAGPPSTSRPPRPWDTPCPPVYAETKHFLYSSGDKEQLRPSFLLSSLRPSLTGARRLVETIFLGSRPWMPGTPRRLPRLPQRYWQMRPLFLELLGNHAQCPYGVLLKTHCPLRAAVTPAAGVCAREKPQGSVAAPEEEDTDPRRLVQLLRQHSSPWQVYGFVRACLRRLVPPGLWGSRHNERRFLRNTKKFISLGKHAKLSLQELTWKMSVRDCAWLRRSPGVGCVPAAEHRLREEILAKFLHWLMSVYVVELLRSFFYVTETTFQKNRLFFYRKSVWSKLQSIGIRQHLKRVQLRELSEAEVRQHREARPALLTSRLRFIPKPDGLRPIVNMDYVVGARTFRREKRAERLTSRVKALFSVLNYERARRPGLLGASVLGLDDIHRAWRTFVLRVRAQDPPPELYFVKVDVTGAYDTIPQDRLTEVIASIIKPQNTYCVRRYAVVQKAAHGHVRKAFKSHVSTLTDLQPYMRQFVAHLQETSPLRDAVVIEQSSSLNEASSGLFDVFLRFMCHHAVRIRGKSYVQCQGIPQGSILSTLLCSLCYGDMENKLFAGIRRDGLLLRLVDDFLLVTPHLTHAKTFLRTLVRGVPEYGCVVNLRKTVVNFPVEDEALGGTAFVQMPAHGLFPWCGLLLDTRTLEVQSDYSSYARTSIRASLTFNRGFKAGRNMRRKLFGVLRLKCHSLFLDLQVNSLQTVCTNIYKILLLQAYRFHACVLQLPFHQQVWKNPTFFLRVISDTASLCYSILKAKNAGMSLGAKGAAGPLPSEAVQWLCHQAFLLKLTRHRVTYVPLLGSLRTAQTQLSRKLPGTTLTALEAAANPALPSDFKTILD

Columns and labels:
Flag-LDHB [1] = molecular target: Flag-LDHB (UniProt P07195); assay: co-IP; HEK293T cells co-transfected with Myc-TERT and Flag-LDHB or Flag-DKC1; lysates treated with RNase A (0.1mg/ml) before anti-Flag IP; blot with anti-Myc and anti-Flag
Flag-LDHB [2] = molecular target: Flag-LDHB (UniProt P07195); assay: co-IP; 293T cells co-transfected with Myc-TERT and a Flag-tagged protein; NP40 lysis buffer (25 mM HEPES-KOH pH 7.5, 1.5 mM MgCl2, 150 mM KCl, 0.5% NP40, 10% glycerol, 5 mM beta-mercaptoethanol); anti-flag M2 affinity gel, 4°C, 4 h; blot with anti-Myc and anti-Flag

binding (Flag-LDHB [1]): binds | binding (Flag-LDHB [2]): binds
Substance: Myc-TERT (from UniProt O14746 1-1132)
